{
  "sequences": {"note": "Chains of the proteins cited; added tags and fusions are not shown. Residues count along the entry.", "UniProt P25440, 74-180 limits assumed": "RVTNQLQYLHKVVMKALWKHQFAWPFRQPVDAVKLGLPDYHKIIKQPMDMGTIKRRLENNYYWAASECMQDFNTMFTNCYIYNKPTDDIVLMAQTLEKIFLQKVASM"},
  "source": "patent US20170122958A1",
  "about": "“Enzymes Functional Probes” (University of Dundee, priority 2013, published 2017)",
  "key": {"Brd2(1)": {"target": "T1, Brd2(1) (Homo sapiens, UniProt P25440)", "T1 construct": "Plasmids of the eight single BET bromodomain constructs Brd2(1), Brd2(2), Brd3(1), Brd3(2); His6 (N); made in house; host or cells: E. coli BL21(DE3)", "assay": "DSF thermal shift", "format": "binding", "conditions": "wild type", "method": "DSF assays were performed on a LightCycler®480 from Roche or a Mx3005P Real Time PCR machine from Stratagene. […] SYPRO®Orange from Invitrogen Molecular Probes® was used as a reporter dye to monitor the denaturing process of the proteins. Samples were assayed on a 96-well plate with final protein concentrations of 2 μM for the LightCycler®480 and 6 μM for Mx3005P. Compounds were added at a final concentration of 10 μM for the LightCycler®480 and 30 μM for Mx3005P, while the tetra acetylated histone peptide was added to a final concentration of 100 μM and 300 μM respectively. […] The temperature was raised with a step of 0.6° C. per minute from 37° C. to 95° C. with the LightCycler®480 collecting 39 measurements per ° C., and 1° C. per minute from 25° C. to 95° C. with Mx3005P, collecting fluorescence readings at the end of each interval. Each sample was run in triplicates.\nCollected data was analysed by IGOR Pro 6, a scientific software tool from Wave Metrics, Inc. Analysis was done following the recommendations of Niesen et al.. Fluorescence intensity was plotted as a function of temperature, generating a sigmoidal curve described by a two-state transition from folded to unfolded protein. Curves were fitted by the following sigmoidal equation: […]\nA1 and A2 are the values of minimum and maximum intensities, respectively, x0 is the inflection point and dx is the rate. […]"}, "BET bromodomains": {"target": "BET bromodomains", "conditions": "KAc binding pocket; background statement; cited from earlier work"}},
  "note": "pKd: −log10 of the molar value. Some of these results come from one statement about several compounds together. For some of these results: At least one structure is not confirmed: it was looked up by name or label, or the drawing left a doubt.",
  "data": [
    {"smiles": "COC(=O)CC1N=C(c2ccc(Cl)cc2)c2cc(OC)cc(C)c2-n2c(C)nnc21", "note": "(stereo not shown) [Compound 4, Methyl 2-(6-(4-chlorophenyl)-8-methoxy-1,10-dimethyl-4H benzo[f][1,2,4]triazolo[4,3-a][1,4]diazepin-4-yl)acetate]", "values": [
      {"measurement": "Thermal stabilisation brd2(1)", "setting": "Brd2(1); listed as compound 4", "value": "smaller than 1 °C"}
    ]},
    {"smiles": "CCNC(=O)CC1N=C(c2ccc(Cl)cc2)c2cc(OC)cc(C)c2-n2c(C)nnc21", "note": "(stereo not shown) [Compound 19]", "values": [
      {"measurement": "Thermal stabilisation brd2(1)", "setting": "Brd2(1)", "value": "smaller than 1 °C"}
    ]},
    {"smiles": "Cc1nnc2n1-c1ccccc1C(c1ccccc1)=NC2NC(=O)OCc1ccccc1", "note": "(stereo not shown) [GW841819X]", "values": [
      {"measurement": "pKd", "setting": "BET bromodomains", "value": "6.52 to 7.30"}
    ]},
    {"smiles": "Cc1sc2c(c1C)C(c1ccc(Cl)cc1)=N[C@@H](CC(=O)OC(C)(C)C)c1nnc(C)n1-2", "note": "[JQ1]", "values": [
      {"measurement": "pKd", "setting": "BET bromodomains", "value": "6.52 to 7.30"}
    ]}
  ]
}
